# In PubChem BioAssay AID248 (DTP/NCI, 2004):
# The list shows only some results of the screen, not a fair sample: it gathers tests that were run many times, whatever their T/C, doses with no T/C, and many T/C values between a quarter and a half above the control. Other doses and runs of a compound stand elsewhere. T/C: endpoint of the treated group in % of that of the vehicle group. Some entries give survivors of the animals treated and no T/C: the source holds a T/C of zero for them, seemingly a mark for toxic or unscored doses. Some survivor counts are full or nearly so, which does not show that the dose was tolerated: survival well below the control is almost never listed, so the zero probably covers shortened survival too. Survivors were counted at the toxicity check, usually on the fifth day, unless a day is given; later deaths do not show. Schedules are NCI's codes, read here as Q, the interval in days (D) or hours (H), X, the number of doses. Some structures stand for samples that the source files as different forms (salt, stereo form or complex); doses refer to the form tested. For survival time, the PubChem record calls one and a half times the control and up active, and a quarter to a half above the control has no call in these data; cut-offs in other NCI protocols can differ. Some doses were run more than once; the results are listed from low to high. Some T/C values are followed by the survivors on the day toxicity was checked, most often the fifth; where none is given, no animal had died by that day.
# System: L1210 leukemia ip in BDF1 mice, survival T/C
# Assay: NCI In Vivo Anticancer Drug Screen. Data for tumor model L1210 Leukemia (intraperitoneal) in B6D2F1 (BDF1) mice
# Settings: higher T/C = longer survival
# [1] = T/C endpoint: mean survival time, dose: 200.0 mg/kg/injection, schedule: Q01DX001 (ip), vehicle: Klucel (hydroxypropylcellulose) (HPC)
# [2] = T/C endpoint: mean survival time, dose: 200.0 mg/kg/injection, schedule: Q04DX003 (ip), vehicle: saline with Tween-80
# [3] = T/C endpoint: mean survival time, dose: 400.0 mg/kg/injection, schedule: Q01DX009 (ip), vehicle: Klucel (hydroxypropylcellulose) (HPC)
# [4] = T/C endpoint: mean survival time, dose: 100.0 mg/kg/injection, schedule: Q04DX003 (ip), vehicle: saline with Tween-80
# [5] = T/C endpoint: mean survival time, dose: 400.0 mg/kg/injection, schedule: Q04DX003 (ip), vehicle: saline with Tween-80
smiles,measurement,setting,value
CC1(C)CCC(C)(C)C(=O)C1=O,survivor count,"T/C endpoint: mean survival time, dose: 80.0 mg/kg/injection, schedule: Q01DX001 (ip), vehicle: Klucel (hydroxypropylcellulose) (HPC)",2 of 6
same,survivor count,"T/C endpoint: mean survival time, dose: 100.0 mg/kg/injection, schedule: Q01DX001 (ip), vehicle: Klucel (hydroxypropylcellulose) (HPC)",1 of 6
same,survivor count,[1],0 of 6
same,survivor count,"T/C endpoint: mean survival time, dose: 400.0 mg/kg/injection, schedule: Q01DX001 (ip), vehicle: Klucel (hydroxypropylcellulose) (HPC)",0 of 6
Cc1c[n+]([O-])c(C)cc1N=Nc1ccc(N(C)C)cc1,survivor count,"T/C endpoint: mean survival time, dose: 400.0 mg/kg/injection, schedule: Q04DX002 (ip), vehicle: saline with Tween-80",2 of 3
c1ccc2c(c1)C1C3CCC(C3)C21 (configuration not stated),T/C,[2],137 % of control
O=CN(O)CC(=O)O.[Zn],survivor count,"T/C endpoint: mean survival time, dose: 35.0 mg/kg/injection, schedule: Q01DX009 (ip), vehicle: saline",1 of 6
same,survivor count,"T/C endpoint: mean survival time, dose: 55.0 mg/kg/injection, schedule: Q01DX009 (ip), vehicle: saline",2 of 6
same,survivor count,"T/C endpoint: mean survival time, dose: 80.0 mg/kg/injection, schedule: Q01DX009 (ip), vehicle: saline",0 of 6
CCOC(=O)C(=O)Nc1onc(C)c1[N+](=O)[O-],survivor count,[3],3 of 6
CCN=C(c1ccc(NC(=O)c2ccc(C(=O)Nc3ccc(C(=NCC)N(CC)C(=O)CC(C)C)cc3)cc2)cc1)N(CC)C(=O)CC(C)C,survivor count,"T/C endpoint: mean survival time, dose: 400.0 mg/kg/injection, schedule: Q01DX015 (ip), vehicle: methylcellulose (MC)",6 of 6
CC1(C)C(=O)NC2(O)CCCC21 (configuration not stated),survivor count,"T/C endpoint: mean survival time, dose: 30.0 mg/kg/injection, schedule: Q01DX001 (ip), vehicle: saline",0 of 6
same,survivor count,"T/C endpoint: mean survival time, dose: 60.0 mg/kg/injection, schedule: Q01DX001 (ip), vehicle: saline",0 of 6
same,survivor count,"T/C endpoint: mean survival time, dose: 75.0 mg/kg/injection, schedule: Q01DX001 (sc), vehicle: saline",0 of 6
same,survivor count,"T/C endpoint: mean survival time, dose: 150.0 mg/kg/injection, schedule: Q01DX001 (sc), vehicle: saline",0 of 6
same,survivor count,"T/C endpoint: mean survival time, dose: 300.0 mg/kg/injection, schedule: Q01DX001 (sc), vehicle: saline",0 of 6
CCOC(=O)[C@H]1CCC[C@@H](NC(=O)N(CCCl)N=O)C1,survivor count,"T/C endpoint: mean survival time, dose: 125.0 mg/kg/injection, schedule: Q01DX001 (ip), vehicle: other",6 of 6
same,survivor count,"T/C endpoint: mean survival time, dose: 250.0 mg/kg/injection, schedule: Q01DX001 (ip), vehicle: other",6 of 6
same,survivor count,"T/C endpoint: mean survival time, dose: 375.0 mg/kg/injection, schedule: Q01DX001 (ip), vehicle: other",4 of 6
same,survivor count,"T/C endpoint: mean survival time, dose: 500.0 mg/kg/injection, schedule: Q01DX001 (ip), vehicle: other",1 of 6
same,survivor count,"T/C endpoint: mean survival time, dose: 750.0 mg/kg/injection, schedule: Q01DX001 (ip), vehicle: other",0 of 6
same,survivor count,"T/C endpoint: mean survival time, dose: 1000.0 mg/kg/injection, schedule: Q01DX001 (ip), vehicle: other",1 of 6
CCCC[P+](c1ccccc1)(c1ccccc1)c1ccccc1,survivor count,"T/C endpoint: mean survival time, dose: 6.25 mg/kg/injection, schedule: Q01DX009 (ip), vehicle: saline",4 of 6
same,survivor count,"T/C endpoint: mean survival time, dose: 50.0 mg/kg/injection, schedule: Q01DX009 (ip), vehicle: saline",2 of 6
same,survivor count,"T/C endpoint: mean survival time, dose: 100.0 mg/kg/injection, schedule: Q01DX009 (ip), vehicle: Klucel (hydroxypropylcellulose) (HPC)",2 of 6
same,survivor count,"T/C endpoint: mean survival time, dose: 100.0 mg/kg/injection, schedule: Q04DX003 (ip), vehicle: saline sonified",0 of 6
same,survivor count,"T/C endpoint: mean survival time, dose: 200.0 mg/kg/injection, schedule: Q01DX009 (ip), vehicle: Klucel (hydroxypropylcellulose) (HPC)",0 of 6
same,survivor count,"T/C endpoint: mean survival time, dose: 200.0 mg/kg/injection, schedule: Q04DX003 (ip), vehicle: saline sonified",0 of 6
same,survivor count,[3],1 of 6
same,survivor count,"T/C endpoint: mean survival time, dose: 400.0 mg/kg/injection, schedule: Q04DX003 (ip), vehicle: saline sonified",0 of 6
CN(C)c1ccc(/C=N/NC(N)=S)nc1,T/C,"T/C endpoint: mean survival time, dose: 8.0 mg/kg/injection, schedule: Q03HX032 (ip), vehicle: saline with Tween-80",131 % of control
same,T/C,"T/C endpoint: mean survival time, dose: 12.0 mg/kg/injection, schedule: Q03HX032 (ip), vehicle: saline with Tween-80",128 % of control
same,T/C,"T/C endpoint: mean survival time, dose: 27.0 mg/kg/injection, schedule: Q03HX032 (ip), vehicle: saline with Tween-80",131 % of control
same,T/C,"T/C endpoint: mean survival time, dose: 29.0 mg/kg/injection, schedule: Q04DX003 (ip), vehicle: saline with Tween-80",129 % of control
same,T/C,[4],129 and 146 % of control
same,survivor count,"T/C endpoint: mean survival time, dose: 150.0 mg/kg/injection, schedule: Q04DX003 (ip), vehicle: saline with Tween-80",4 of 6
same,survivor count,[5],1 of 6
CC[C@H]1CN2CCc3cc(OC)c(OC)cc3[C@@H]2C[C@@H]1C[C@H]1NCCc2c1[nH]c1ccc(O)cc21,T/C,"T/C endpoint: mean survival time, dose: 1.0 mg/kg/injection, schedule: Q01DX006 (ip), vehicle: saline",127 % of control
same,T/C,"T/C endpoint: mean survival time, dose: 2.0 mg/kg/injection, schedule: Q01DX006 (ip), vehicle: saline",128 % of control
same,survivor count,"T/C endpoint: mean survival time, dose: 4.0 mg/kg/injection, schedule: Q01DX006 (ip), vehicle: saline",7 of 9
same,survivor count,"T/C endpoint: mean survival time, dose: 8.0 mg/kg/injection, schedule: Q01DX005 (ip), vehicle: saline",0 of 10
same,survivor count,"T/C endpoint: mean survival time, dose: 8.0 mg/kg/injection, schedule: Q01DX006 (ip), vehicle: saline",0 of 10
same,T/C,"T/C endpoint: mean survival time, dose: 8.0 mg/kg/injection, schedule: Q04DX003 (ip), vehicle: saline",136 % of control
same,survivor count,"T/C endpoint: mean survival time, dose: 16.0 mg/kg/injection, schedule: Q01DX005 (ip), vehicle: saline",0 of 10
same,survivor count,"T/C endpoint: mean survival time, dose: 16.0 mg/kg/injection, schedule: Q04DX003 (ip), vehicle: saline",0 of 10
same,survivor count,"T/C endpoint: mean survival time, dose: 32.0 mg/kg/injection, schedule: Q04DX003 (ip), vehicle: saline",0 of 10
same,T/C,"T/C endpoint: mean survival time, dose: 2000.0 micrograms/kg/injection, schedule: Q01DX009 (ip), vehicle: saline",131 % of control
same,survivor count,"T/C endpoint: mean survival time, dose: 4000.0 micrograms/kg/injection, schedule: Q01DX009 (ip), vehicle: saline",5 of 10
same,T/C,"T/C endpoint: median survival time, dose: 4.0 mg/kg/injection, schedule: Q04DX003 (ip), vehicle: saline + alcohol",126 % of control [7 of 8 alive]
same,survivor count,"T/C endpoint: median survival time, dose: 8.0 mg/kg/injection, schedule: Q04DX003 (ip), vehicle: saline + alcohol",4 of 8
same,survivor count,"T/C endpoint: median survival time, dose: 16.0 mg/kg/injection, schedule: Q04DX003 (ip), vehicle: saline + alcohol",2 of 8
Nc1nc(N)c(-c2ccc(Cl)c(Cl)c2)c(COc2ccc(NC(=O)c3ccc(S(=O)(=O)F)cc3)cc2Cl)n1,survivor count,[1],6 of 6
COc1ccc2c(CSc3ncnc4nc[nH]c34)cc(=O)oc2c1,survivor count,"T/C endpoint: mean survival time, dose: 100.0 mg/kg/injection, schedule: Q04DX002 (ip), vehicle: Klucel (hydroxypropylcellulose) (HPC)",3 of 3
CCN=C(c1ccc(NC(=O)c2ccc(C(=O)Nc3ccc(C(=NCC)N(CC)C(=O)C(F)(F)C(F)(F)C(F)(F)F)cc3)cc2)cc1)N(CC)C(=O)C(F)(F)C(F)(F)C(F)(F)F,T/C,"T/C endpoint: mean survival time, dose: 3.75 mg/kg/injection, schedule: Q01DX015 (ip), vehicle: methylcellulose (MC)",132 % of control
same,T/C,"T/C endpoint: mean survival time, dose: 6.0 mg/kg/injection, schedule: Q01DX015 (ip), vehicle: methylcellulose (MC)",139 % of control
same,survivor count,"T/C endpoint: mean survival time, dose: 30.0 mg/kg/injection, schedule: Q01DX015 (ip), vehicle: methylcellulose (MC)",0 of 6
same,survivor count,"T/C endpoint: mean survival time, dose: 62.0 mg/kg/injection, schedule: Q01DX015 (ip), vehicle: methylcellulose (MC)",0 of 6
same,survivor count,"T/C endpoint: mean survival time, dose: 125.0 mg/kg/injection, schedule: Q01DX015 (ip), vehicle: methylcellulose (MC)",0 of 6
same,survivor count,"T/C endpoint: mean survival time, dose: 250.0 mg/kg/injection, schedule: Q01DX015 (ip), vehicle: methylcellulose (MC)",0 of 6
same,survivor count,"T/C endpoint: mean survival time, dose: 500.0 mg/kg/injection, schedule: Q01DX015 (ip), vehicle: methylcellulose (MC)",0 of 6
CC(C)C(NC1=NCCO1)c1ccccc1 (configuration not stated),survivor count,[4],6 of 6
same,survivor count,[2],0 of 6
same,survivor count,[5],0 of 6
CC1(C)N=C(N)N=C(N)N1c1cccc(CNc2ccccc2)c1,survivor count,"T/C endpoint: mean survival time, dose: 50.0 mg/kg/injection, schedule: Q01DX001 (ip), vehicle: saline",1 of 6
same,survivor count,"T/C endpoint: mean survival time, dose: 100.0 mg/kg/injection, schedule: Q01DX001 (ip), vehicle: saline",0 of 6
same,survivor count,"T/C endpoint: mean survival time, dose: 200.0 mg/kg/injection, schedule: Q01DX001 (ip), vehicle: saline",0 of 6
same,survivor count,"T/C endpoint: mean survival time, dose: 400.0 mg/kg/injection, schedule: Q01DX001 (ip), vehicle: saline",0 of 6
